Reference: PubChem BioAssay AID2685 (National Center for Advancing Translational Sciences (NCATS), 2010)
The list shows a part of the results. The main result of the screen is listed elsewhere. These columns were measured beside it and carry no call. Compounds called inactive in the main read-out are mostly missing here. The note in brackets gives the kind of curve behind each potency; many fits are weak.

Assay: qHTS Assay for Lipid Storage Modulators in Drosophila S3 Cells;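 on cell number change: cells counted by Cell Tracker Red CMTPX staining in the red channel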
Conditions: BODIPY lipid droplet fluorescence, 18-24 h; for cell number change: measured here: cell count max response, cells fed with added oleic acid
How it was run: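 Laser-scanning cytometry quantifies lipid droplet accumulation (500–530 nm total intensity; droplet/cell object ratio) in oleic acid-fed (400 uM added) Drosophila S3 cells treated with a concentration series. 20 uM Triacsin C defined 100% inhibition.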

[1] = measured here: cell number channel AC50, cells fed with added oleic acid
[2] = measured here: lipid fluorescence (Fed channel) AC50, cells fed with added oleic acid

| Compound | cell number change | AC50 [1] | AC50 [2] |
| --- | --- | --- | --- |
| O=C(NC1CCCCCC1)C(=O)NC1CC1 | -23.6% | – | – |
| COc1ccc(OC)c(S(=O)(=O)Nc2ccc(O)c3ccccc23)c1 | -108% | 29.1 µM [falling, single point] | – |
| COc1ccc(N2CCN(C(=O)CSc3ncnc4c3cnn4-c3ccccc3C)CC2)cc1 | – | 6.51 µM [rising, single point] | 6.51 µM [rising, single point] |
| COc1cc(C(=O)OC2CCCCC2=O)cc(OC)c1C (stereo not drawn) | 7.03% | – | 0.00461 µM [falling, full curve, poor fit] |
| Cc1ccc(S(=O)(=O)N2CCC(C(=O)OCC(=O)NCCc3ccccc3)CC2)cc1C | -0.33% | – | 16.4 µM [rising, single point] |
| CCn1c(SCC(=O)NC2CCCC2)nnc1-c1ccncc1 | 3.48% | – | 2.91 µM [falling, single point] |
| Cn1c(CC(=O)Nc2ccccc2F)nnc1SCC(=O)NC1CCCCC1 | 16.2% | 1.03 µM [rising, partial curve, poor fit] | – |
| CCCc1nc(SCC(=O)N2c3ccccc3CC2C)c2c(C)c(C)sc2n1 (stereo not drawn) | – | – | 4.11 µM [rising, full curve] |
| CCN(CC)CC(O)Cn1c(-c2ccccc2Cl)nc2ccccc21 (stereo not drawn) | -6.08% | – | 0.13 µM [rising, full curve, poor fit] |
| COC(=O)CC1(C(=O)OC)Oc2ccc(Br)cc2C(=O)N1c1cc(Cl)cc(Cl)c1 (stereo not drawn) | -3.23% | 0.00461 µM [falling, full curve, poor fit] | – |
| N#Cc1ccc(-n2c(-c3ccccc3)nnc2-c2ccccc2)cc1C#N | -25.9% | – | 0.0517 µM [falling, full curve] |
| CC1(C)CC(=O)C/C(=N/NC(=O)CCCOc2ccc(Cl)cc2Cl)C1 | 1.24% | – | 0.411 µM [falling, full curve, poor fit] |
| O=C(NCC(=O)N(c1cnc2ccccc2c1)C(C(=O)NC1CCCC1)c1ccncc1)c1ccco1 (stereo not drawn) | 19.1% | – | 18.4 µM [rising, partial curve, poor fit] |
| CCOc1ccccc1NC(=O)COC(=O)CC(C)(C)CC1=NS(=O)(=O)c2ccccc2N1 | 15.2% | 6.51 µM [falling, single point] | 14.6 µM [falling, partial curve, poor fit] |
| COc1ccc(C(=O)NC(=S)Nc2ccc(NC(=O)c3ccco3)cc2)cc1[N+](=O)[O-] | -20.3% | – | 2.31 µM [rising, partial curve] |
| Cc1nc2ccccc2c2oc(C(=O)Nc3ccc4c(c3)OCCO4)cc12 | 0.0697% | – | – |
| Nc1nc(CSC(=S)N2CCN(c3ccccc3)CC2)nc(Nc2ccc(F)cc2)n1 | 31.9% | – | 29.1 µM [falling, single point] |
| CN(Cc1ccc(Cl)s1)C(=O)CN1C(=O)N(C)C2(CCCCC2)C1=O | 1.82% | – | – |
| COc1ccccc1CNS(=O)(=O)c1ccc(-n2cnnn2)c(C)c1 | 10.3% | – | 6.51 µM [falling, partial curve] |

| Compound | cell number change | AC50 [1] | AC50 [2] |
| --- | --- | --- | --- |
| COc1ccc(CCN2C(=O)c3[nH]nc(-c4ccccc4O)c3C2c2cccc(O)c2)cc1OC (stereo not drawn) | 0.753% | – | 0.291 µM [rising, full curve, poor fit] |
| CC(=O)c1ccc(NC(=O)C2CCCN2S(=O)(=O)c2cccs2)cc1 (stereo not drawn) | 20.1% | – | – |
| O=[N+]([O-])c1ccc2nc(NCCCO)nc(-c3ccccc3)c2c1 | 31.8% | 23.1 µM [rising, single point] | 29.1 µM [rising, single point] |
| CCN(C(=O)COC(=O)c1cccs1)c1c(N)n(Cc2ccccc2)c(=O)[nH]c1=O | 2.09% | – | 0.0731 µM [falling, full curve, poor fit] |
| CCCCn1c(N)c(N(CC(C)C)C(=O)CSc2nnc(C)n2-c2ccc(OC)cc2)c(=O)[nH]c1=O | 3.01% | 1.46 µM [falling, partial curve] | 6.51 µM [falling, single point] |
| Cc1ncoc1C(=O)N1CCCC(C(=O)c2ccc(Oc3ccccc3)cc2)C1 (stereo not drawn) | -38.4% | 16.4 µM [falling, partial curve] | 11.6 µM [falling, partial curve, poor fit] |
| OCC[C@@H]1C[C@@H](O)[C@H](O)[C@]2(Cc3ccccc3CCO2)O1 | 8.68% | – | 29.1 µM [rising, single point] |
| Cc1ccc(S(=O)(=O)Nc2nc3ccccc3nc2Nc2cccc(S(=O)(=O)N3CCCC3)c2)cc1 | – | 1.84 µM [falling, partial curve] | 6.51 µM [falling, single point] |
| COc1cc(S(=O)(=O)N(Cc2cccs2)CC2CCCO2)ccc1-n1cnnn1 (stereo not drawn) | 1.41% | – | 2.31 µM [falling, partial curve] |
| CCN(C(=O)Cn1c(=O)oc2ccccc21)c1c(N)n(Cc2ccccc2)c(=O)[nH]c1=O | -10.2% | – | – |
| Cc1c(C(=O)OC(C)C)sc(NC(=O)C2CCCO2)c1C(=O)OC(C)C (stereo not drawn) | -3.71% | 6.51 µM [rising, single point] | 0.259 µM [rising, full curve, poor fit] |
| Cc1cc(=O)oc2c(CN3CCCC3)c(O)c(Cl)cc12 | -40.3% | – | 29.1 µM [rising, single point] |
| COc1ccccc1NC(=S)N1CCN(c2cccc(C)c2C)CC1 | -38.1% | 3.66 µM [falling, single point] | 16.4 µM [falling, single point] |
| CCNC(=O)C12CCC(C)(C(=O)O1)C2(C)C (stereo not drawn) | 9.01% | – | 0.651 µM [falling, single point] |
| CCn1cc(S(=O)(=O)N2CCc3ccccc3C2)cn1 | 24.6% | – | – |
| COc1cccc(N(CC(=O)NC2CCCCC2)C(=O)c2snc(C(N)=O)c2N)c1 | 6.96% | – | – |
| O=C(Cn1cnc2ccccc2c1=O)Nc1cccc(S(=O)(=O)N2CCCCC2)c1 | -5.73% | – | – |
| CCOC(=O)c1nn(-c2ccccc2)c(=O)cc1OCC(=O)Nc1cc(C)ccc1C | -75% | 9.2 µM [falling, partial curve, poor fit] | 0.00651 µM [falling, full curve, poor fit] |
| COc1ccc(-n2c(C)c(C)c3c(N)ncnc32)cc1 | -9.27% | – | – |

Full records, quoted from the list:
`CC(=O)c1ccc(NC(=O)C2CCCN2S(=O)(=O)c2cccs2)cc1` (stereo not drawn) is listed with cell number change: 20.1%
`COc1ccc(CCN2C(=O)c3[nH]nc(-c4ccccc4O)c3C2c2cccc(O)c2)cc1OC` (stereo not drawn) is listed with cell number change: 0.753%; AC50 [2]: 0.291 µM [rising, full curve, poor fit]

Next part

| Compound | cell number change | AC50 [1] | AC50 [2] |
| --- | --- | --- | --- |
| Cn1c(SCC(=O)c2ccccc2)nc2cccnc21 | -30% | 0.103 µM [falling, full curve, poor fit] | 29.1 µM [falling, single point] |
| Cc1cccc(/C=N/NC(=O)Cn2nc(C)cc2C)n1 | -27.8% | 0.00461 µM [falling, full curve, poor fit] | – |
| O=c1[nH]c(CN2CCN(S(=O)(=O)c3ccc4ccccc4c3)CC2)nc2ccccc12 | -13.5% | – | 0.731 µM [falling, full curve] |
| Cc1ccc(-n2ccc(=O)c(C(=O)Nc3ccc(S(=O)(=O)N4CCOCC4)cc3)n2)cc1 | – | – | 2.06 µM [rising, full curve, poor fit] |
| COC(=O)c1ccc(NC(=S)N2CCN(Cc3ccccc3)CC2)cc1 | -10.7% | – | 2.31 µM [rising, full curve, poor fit] |
| Cc1csc(NC(=O)Nc2ccc(Cl)cc2)n1 | -17.4% | – | 29.1 µM [falling, single point] |
| CCc1cc2c(=O)nc3n(c2s1)Cc1ccccc1/C3=C(/O)c1cccc([N+](=O)[O-])c1 | -1.95% | – | – |
| O=C(CCCN1C(=O)/C(=C/c2cccc(Br)c2)SC1=S)Nc1ccccn1 | – | 6.51 µM [rising, single point] | – |
| Cc1nc(NC(C)c2ccccc2)c2c3c(sc2n1)CCC3 (stereo not drawn) | 23.9% | 0.411 µM [rising, single point] | 2.06 µM [rising, partial curve] |
| O=C(O)CC(NC(=O)/C(=C/c1ccccc1)NC(=O)c1ccccc1)c1ccccc1 (stereo not drawn) | -4.48% | – | 29.1 µM [rising, single point] |
| CC(C)c1ccc(NC(=O)COC(=O)CCC(=O)c2cccs2)cc1 | 16.5% | – | 0.259 µM [rising, partial curve, poor fit] |
| O=C(c1cc2c(=O)n3ccccc3nc2s1)N1CCc2ccccc2C1 | 51.2% | 29.1 µM [rising, single point] | 6.51 µM [falling, single point] |
| CC(C)CCN1C(Nc2ccccc2)=NC[C@@H]1C | 26.3% | – | 29.1 µM [rising, partial curve, poor fit] |
| CCN(CC)CCOC(=O)c1ccc(NC(=O)/C=C/c2cccs2)cc1 | -10.8% | – | 32.6 µM [rising, single point] |
| CC1CCCC(C)N1CCNC(=O)Cn1nc(-c2ccccc2)ccc1=O (stereo not drawn) | 42.6% | 4.61 µM [falling, partial curve, poor fit] | 6.51 µM [falling, partial curve, poor fit] |
| O=c1c(/C=N/O)coc2ccc3ccccc3c12 | 40% | 6.51 µM [rising, partial curve] | 16.4 µM [rising, partial curve] |
| Cc1cccc(N(CC(=O)NC2CCCC2)C(=O)c2nsc(Cl)c2Cl)c1C | -29% | – | 13 µM [falling, partial curve] |
| O=C(COc1ccccc1Cl)NC(=O)NC1CCCCC1 | 62.6% | 18.4 µM [rising, partial curve] | – |
| Nc1ccc2nc(-c3cccc(-c4nc5ccc(N)cc5[nH]4)c3)[nH]c2c1 | -9.91% | – | 29.1 µM [rising, single point] |

3 consecutive compounds from above, for reference:

| Compound | cell number change | AC50 [1] | AC50 [2] |
| --- | --- | --- | --- |
| O=c1c(/C=N/O)coc2ccc3ccccc3c12 | 40% | 6.51 µM [rising, partial curve] | 16.4 µM [rising, partial curve] |
| Cc1cccc(N(CC(=O)NC2CCCC2)C(=O)c2nsc(Cl)c2Cl)c1C | -29% | – | 13 µM [falling, partial curve] |
| O=C(COc1ccccc1Cl)NC(=O)NC1CCCCC1 | 62.6% | 18.4 µM [rising, partial curve] | – |
